PubChem BioAssay AID1159578 | Peter MacCallum Cancer Centre | 2015
Here is one part, drawn at random, of about 18,000 reagents. About 1,030 of all reagents (5.7%) count as active. 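Inactive calls also include pools with fewer than 3300 nuclei, whose migration was not assessed.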 Raw values vary from plate to plate and are shown uncorrected. Not all columns of the deposit are shown.

Assay: 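Genome-wide hunt for genes controlling movement of lymphatic endothelial cells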 (primary screen)
Cell system: human lymphatic endothelial cells
Reagent: siRNA pool against human genes, 40 nM
Time to read-out: 48 h after transfection
Read-out: 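Cells stained with dye and imaged after a scratch; covered wound area and nuclei counted, duplicates averaged, migration set against mock wells and turned into a robust z-score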
Reading the numbers: migration robust z-score: higher = faster migration into the scratch; nuclei per well: higher = more cells in the well
Rule for the call: 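Pools averaging fewer than 3300 nuclei are never called; remaining pools count as changed when migration robust z lies outside -2 to 2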
Meaning of the calls: active = migration changed; inactive = no migration change, or too few cells

| gene | migration robust z-score | nuclei per well, duplicate mean | Call |
| --- | --- | --- | --- |
| GLRX5 | 1.25 | 5791 | inactive |
| UBE2K | -1.04 | 5220 | inactive |
| SIRT3 | 0.31 | 5094 | inactive |
| PRCP | 0.42 | 6209 | inactive |
| DUT | 0.23 | 5744 | inactive |
| ACTL7A | 0.55 | 6086 | inactive |
| SYNE2 | -0.12 | 6244 | inactive |
| CAMKMT | 0.92 | 5004 | inactive |
| ZHX2 | -0.26 | 4878 | inactive |
| DOK1 | 0.14 | 5010 | inactive |
| PXDC1 | 1.34 | 6102 | inactive |
| SPCS3 | -0.13 | 5227 | inactive |
| HEATR3 | 1.6 | 6307 | inactive |
| SC5D | -0.26 | 5983 | inactive |
| SLC7A1 | 0.18 | 5168 | inactive |
| LRRC59 | -0.71 | 5706 | inactive |
| UAP1 | 0.26 | 5635 | inactive |
| LAT | 0.15 | 5120 | inactive |
| ANKRD49 | -0.35 | 5380 | inactive |
| RAVER1 | 1.29 | 5016 | inactive |
| UGT2B15 | 0.64 | 5406 | inactive |

Targets listed so far whose gene name starts with L or l:
| gene | migration robust z-score | nuclei per well, duplicate mean | Call |
| --- | --- | --- | --- |
| LRRC59 | -0.71 | 5706 | inactive |
| LAT | 0.15 | 5120 | inactive |

Continued.
| gene | migration robust z-score | nuclei per well, duplicate mean | Call |
| --- | --- | --- | --- |
| CSRNP3 | -0.27 | 6118 | inactive |
| GRIK3 | 0.21 | 4849 | inactive |
| SLC10A2 | 0.24 | 5003 | inactive |
| GLRB | 0.08 | 5642 | inactive |
| MDK | 0 | 4769 | inactive |
| NIN | 1.19 | 5260 | inactive |
| DNTT | 0.29 | 5592 | inactive |
| VCAM1 | 0.12 | 6568 | inactive |
| COL6A3 | 0.3 | 5108 | inactive |
| TICAM1 | -0.46 | 5446 | inactive |
| SSC4D | 0.6 | 5012 | inactive |
| TRAM1L1 | 0.32 | 5052 | inactive |
| CNOT11 | 0.09 | 5362 | inactive |
| H1-2 | 0.2 | 5744 | inactive |
| DENND2B | -0.76 | 5246 | inactive |
| SLC27A6 | 0.75 | 6026 | inactive |
| ST18 | -0.18 | 6226 | inactive |
| N4BP3 | -0.39 | 5128 | inactive |
| LYZL4 | -1.15 | 4255 | inactive |
| C19orf48P | 0.86 | 5976 | inactive |
| TWIST1 | -1.82 | 4336 | inactive |
| ICMT | 0.36 | 3840 | inactive |
| PIANP | 0.5 | 5974 | inactive |
| C12orf43 | -1.34 | 4986 | inactive |
| C22orf31 | 0.76 | 6406 | inactive |
| COQ8A | 0.29 | 5025 | inactive |
| PPA2 | 0.18 | 4880 | inactive |
| FLII | -0.73 | 6164 | inactive |
| GALNT13 | -0.13 | 5852 | inactive |
| LIPJ | 0.49 | 7146 | inactive |
| ABCG1 | 0.1 | 6124 | inactive |
| KRT20 | -0.67 | 6358 | inactive |
| CREBBP | -0.21 | 6937 | inactive |
| GRID1 | 0.6 | 5522 | inactive |
| FAM78B | -1.79 | 4968 | inactive |
| ZNF491 | 0.86 | 5648 | inactive |
